Data on nine molecules can be found in PMC11172389.

Chains of the proteins cited; added tags and fusions are not shown. Lines headed by an entry give the natural chain unless they say otherwise; changes in a name come on top. Residues count along the entry.
UniProt Q01815: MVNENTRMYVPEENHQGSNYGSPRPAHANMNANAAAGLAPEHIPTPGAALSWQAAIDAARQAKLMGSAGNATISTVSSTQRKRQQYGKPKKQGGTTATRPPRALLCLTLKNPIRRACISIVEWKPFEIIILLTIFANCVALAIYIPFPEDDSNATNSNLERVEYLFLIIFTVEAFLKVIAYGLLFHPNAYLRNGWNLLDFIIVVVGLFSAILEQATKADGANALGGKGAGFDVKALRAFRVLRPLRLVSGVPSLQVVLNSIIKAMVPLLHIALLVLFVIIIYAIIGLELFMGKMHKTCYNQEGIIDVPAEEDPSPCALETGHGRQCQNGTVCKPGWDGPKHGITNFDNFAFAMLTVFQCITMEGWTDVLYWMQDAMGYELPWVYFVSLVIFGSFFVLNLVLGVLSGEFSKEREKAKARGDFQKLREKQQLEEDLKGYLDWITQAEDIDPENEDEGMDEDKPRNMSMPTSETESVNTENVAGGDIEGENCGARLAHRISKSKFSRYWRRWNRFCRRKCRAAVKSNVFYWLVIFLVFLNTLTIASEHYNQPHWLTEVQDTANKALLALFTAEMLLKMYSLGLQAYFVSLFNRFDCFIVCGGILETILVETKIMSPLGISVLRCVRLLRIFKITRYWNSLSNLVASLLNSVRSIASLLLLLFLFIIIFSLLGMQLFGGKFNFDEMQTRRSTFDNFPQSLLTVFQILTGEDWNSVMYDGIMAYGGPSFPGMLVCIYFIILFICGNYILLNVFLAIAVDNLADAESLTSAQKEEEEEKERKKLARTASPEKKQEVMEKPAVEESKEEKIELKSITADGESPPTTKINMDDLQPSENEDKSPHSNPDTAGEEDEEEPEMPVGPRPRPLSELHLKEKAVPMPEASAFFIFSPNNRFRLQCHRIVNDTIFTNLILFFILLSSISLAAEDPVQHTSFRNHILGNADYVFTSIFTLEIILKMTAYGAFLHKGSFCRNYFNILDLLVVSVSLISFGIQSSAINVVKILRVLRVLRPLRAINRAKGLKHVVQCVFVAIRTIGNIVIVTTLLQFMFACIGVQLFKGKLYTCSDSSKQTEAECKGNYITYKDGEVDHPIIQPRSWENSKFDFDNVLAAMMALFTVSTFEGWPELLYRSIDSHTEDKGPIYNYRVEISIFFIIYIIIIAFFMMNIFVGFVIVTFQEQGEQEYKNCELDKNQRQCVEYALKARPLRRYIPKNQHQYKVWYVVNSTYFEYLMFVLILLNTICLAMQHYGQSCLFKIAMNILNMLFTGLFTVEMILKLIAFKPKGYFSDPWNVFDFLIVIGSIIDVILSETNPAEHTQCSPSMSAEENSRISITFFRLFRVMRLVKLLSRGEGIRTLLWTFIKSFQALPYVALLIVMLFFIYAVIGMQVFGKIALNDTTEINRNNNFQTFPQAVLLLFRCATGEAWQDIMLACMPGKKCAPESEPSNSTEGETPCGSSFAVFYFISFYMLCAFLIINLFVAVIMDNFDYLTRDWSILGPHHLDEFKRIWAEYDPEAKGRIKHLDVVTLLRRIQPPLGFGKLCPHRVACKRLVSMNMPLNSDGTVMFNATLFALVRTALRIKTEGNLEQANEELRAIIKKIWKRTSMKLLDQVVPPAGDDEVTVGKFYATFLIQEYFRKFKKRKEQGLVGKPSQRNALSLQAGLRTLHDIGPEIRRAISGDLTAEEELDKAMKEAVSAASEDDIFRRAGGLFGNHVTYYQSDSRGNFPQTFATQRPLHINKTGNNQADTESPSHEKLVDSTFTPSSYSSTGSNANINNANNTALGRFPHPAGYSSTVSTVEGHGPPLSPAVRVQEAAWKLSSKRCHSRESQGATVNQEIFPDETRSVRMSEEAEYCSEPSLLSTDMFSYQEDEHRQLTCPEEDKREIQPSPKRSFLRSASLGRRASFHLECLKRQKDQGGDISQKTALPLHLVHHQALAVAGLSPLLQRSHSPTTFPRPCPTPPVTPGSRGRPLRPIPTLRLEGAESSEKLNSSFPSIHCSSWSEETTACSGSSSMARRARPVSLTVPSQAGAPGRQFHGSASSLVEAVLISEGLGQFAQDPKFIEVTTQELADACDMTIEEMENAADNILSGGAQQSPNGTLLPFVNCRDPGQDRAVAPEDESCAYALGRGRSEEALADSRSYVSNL
UniProt Q8R3Z5: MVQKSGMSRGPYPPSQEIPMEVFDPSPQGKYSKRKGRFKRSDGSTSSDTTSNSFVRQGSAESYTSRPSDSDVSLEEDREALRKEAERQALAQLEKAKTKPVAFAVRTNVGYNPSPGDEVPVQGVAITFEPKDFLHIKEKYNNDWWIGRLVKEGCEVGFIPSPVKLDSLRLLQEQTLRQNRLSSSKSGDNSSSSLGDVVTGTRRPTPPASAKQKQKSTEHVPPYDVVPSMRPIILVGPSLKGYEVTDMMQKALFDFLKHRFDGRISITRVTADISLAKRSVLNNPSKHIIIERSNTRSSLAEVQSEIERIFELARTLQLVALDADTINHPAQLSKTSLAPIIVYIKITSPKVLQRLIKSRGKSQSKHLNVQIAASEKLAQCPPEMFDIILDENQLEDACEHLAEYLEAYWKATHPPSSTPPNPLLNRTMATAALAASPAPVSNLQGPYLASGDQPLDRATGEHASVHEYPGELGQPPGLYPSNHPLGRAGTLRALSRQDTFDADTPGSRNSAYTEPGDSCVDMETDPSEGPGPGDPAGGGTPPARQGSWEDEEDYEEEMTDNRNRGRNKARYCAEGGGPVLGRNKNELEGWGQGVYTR
UniProt Q6PHS9, residues 19-1154: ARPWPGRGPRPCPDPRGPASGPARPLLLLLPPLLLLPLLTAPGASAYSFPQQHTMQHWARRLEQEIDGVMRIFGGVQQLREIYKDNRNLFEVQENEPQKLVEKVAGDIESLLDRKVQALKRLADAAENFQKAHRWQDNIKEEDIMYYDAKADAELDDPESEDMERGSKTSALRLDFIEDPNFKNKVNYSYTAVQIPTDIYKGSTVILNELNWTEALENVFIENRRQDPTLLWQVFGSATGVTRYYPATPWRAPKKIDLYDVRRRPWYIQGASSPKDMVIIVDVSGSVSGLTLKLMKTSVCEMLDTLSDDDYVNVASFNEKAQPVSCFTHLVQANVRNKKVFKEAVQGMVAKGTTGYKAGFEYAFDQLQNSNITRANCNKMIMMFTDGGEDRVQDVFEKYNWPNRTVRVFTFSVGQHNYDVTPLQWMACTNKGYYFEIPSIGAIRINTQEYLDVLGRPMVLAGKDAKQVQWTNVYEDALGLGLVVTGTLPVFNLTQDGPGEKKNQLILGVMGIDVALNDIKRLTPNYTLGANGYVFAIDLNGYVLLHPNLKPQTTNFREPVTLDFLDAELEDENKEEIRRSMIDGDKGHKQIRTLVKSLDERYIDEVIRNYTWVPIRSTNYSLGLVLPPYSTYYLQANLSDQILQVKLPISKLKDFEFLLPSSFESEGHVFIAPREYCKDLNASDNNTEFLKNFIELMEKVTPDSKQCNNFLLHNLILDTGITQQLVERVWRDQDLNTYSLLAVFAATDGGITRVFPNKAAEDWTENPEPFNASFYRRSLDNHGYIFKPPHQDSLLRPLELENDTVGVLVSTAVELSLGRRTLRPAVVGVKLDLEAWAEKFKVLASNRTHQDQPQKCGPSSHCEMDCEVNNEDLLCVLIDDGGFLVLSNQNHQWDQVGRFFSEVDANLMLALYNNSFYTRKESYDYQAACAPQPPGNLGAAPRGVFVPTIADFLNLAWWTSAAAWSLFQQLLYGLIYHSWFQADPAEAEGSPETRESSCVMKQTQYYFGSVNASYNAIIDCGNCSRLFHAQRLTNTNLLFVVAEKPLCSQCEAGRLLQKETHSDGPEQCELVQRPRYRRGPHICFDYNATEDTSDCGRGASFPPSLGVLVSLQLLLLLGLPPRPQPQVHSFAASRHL
UniProt O88444: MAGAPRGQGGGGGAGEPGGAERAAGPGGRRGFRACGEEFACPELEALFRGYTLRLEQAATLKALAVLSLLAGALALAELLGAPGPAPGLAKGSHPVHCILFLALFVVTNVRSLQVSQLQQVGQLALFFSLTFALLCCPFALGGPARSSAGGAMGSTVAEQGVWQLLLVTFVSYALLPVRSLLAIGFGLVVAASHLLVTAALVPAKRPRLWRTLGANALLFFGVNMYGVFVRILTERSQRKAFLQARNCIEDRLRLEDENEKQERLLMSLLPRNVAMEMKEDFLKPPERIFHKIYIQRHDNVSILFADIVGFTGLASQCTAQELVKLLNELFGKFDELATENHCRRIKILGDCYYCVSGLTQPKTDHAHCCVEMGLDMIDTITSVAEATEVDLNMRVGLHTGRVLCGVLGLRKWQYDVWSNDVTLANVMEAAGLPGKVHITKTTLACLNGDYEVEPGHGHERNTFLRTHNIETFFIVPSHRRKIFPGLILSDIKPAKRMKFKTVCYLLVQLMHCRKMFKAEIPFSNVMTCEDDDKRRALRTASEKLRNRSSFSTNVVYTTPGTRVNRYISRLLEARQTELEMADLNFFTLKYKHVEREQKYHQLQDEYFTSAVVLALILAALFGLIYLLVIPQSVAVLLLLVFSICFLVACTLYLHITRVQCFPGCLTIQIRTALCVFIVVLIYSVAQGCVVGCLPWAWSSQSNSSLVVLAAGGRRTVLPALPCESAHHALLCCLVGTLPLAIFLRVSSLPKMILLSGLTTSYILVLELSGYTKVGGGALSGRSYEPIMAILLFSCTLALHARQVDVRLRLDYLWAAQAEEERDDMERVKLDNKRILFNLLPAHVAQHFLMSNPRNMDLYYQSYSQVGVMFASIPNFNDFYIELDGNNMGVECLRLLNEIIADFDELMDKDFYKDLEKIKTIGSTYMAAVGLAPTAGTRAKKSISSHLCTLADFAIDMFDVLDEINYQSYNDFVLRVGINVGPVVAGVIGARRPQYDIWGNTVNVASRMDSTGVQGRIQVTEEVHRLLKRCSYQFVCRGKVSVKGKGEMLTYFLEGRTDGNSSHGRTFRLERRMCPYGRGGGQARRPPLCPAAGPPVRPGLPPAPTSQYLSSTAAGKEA
UniProt P58391: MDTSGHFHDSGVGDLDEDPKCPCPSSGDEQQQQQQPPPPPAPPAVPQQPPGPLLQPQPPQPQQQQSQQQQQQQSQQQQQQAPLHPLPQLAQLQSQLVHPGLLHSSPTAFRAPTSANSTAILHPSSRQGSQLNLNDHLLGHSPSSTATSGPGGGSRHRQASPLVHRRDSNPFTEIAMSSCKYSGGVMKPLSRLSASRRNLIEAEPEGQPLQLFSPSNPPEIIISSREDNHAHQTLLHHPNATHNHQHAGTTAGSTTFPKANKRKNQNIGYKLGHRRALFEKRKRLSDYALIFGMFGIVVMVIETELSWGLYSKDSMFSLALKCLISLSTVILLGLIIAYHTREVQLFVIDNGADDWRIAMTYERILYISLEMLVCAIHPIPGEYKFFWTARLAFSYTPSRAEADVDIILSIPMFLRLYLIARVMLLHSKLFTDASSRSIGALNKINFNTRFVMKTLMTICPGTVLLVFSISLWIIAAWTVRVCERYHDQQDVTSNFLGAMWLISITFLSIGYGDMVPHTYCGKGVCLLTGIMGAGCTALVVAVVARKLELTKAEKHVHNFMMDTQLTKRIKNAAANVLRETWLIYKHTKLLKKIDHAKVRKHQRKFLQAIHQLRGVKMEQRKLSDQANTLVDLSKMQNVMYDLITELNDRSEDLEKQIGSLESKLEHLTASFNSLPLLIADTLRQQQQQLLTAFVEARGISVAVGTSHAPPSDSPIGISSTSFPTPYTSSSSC

The chains are these.
T1: hyperpolarization-activated cyclic nucleotide-gated channel HCN2 (mouse (endogenous in midbrain)) (UniProt O88703)
T1 sequence: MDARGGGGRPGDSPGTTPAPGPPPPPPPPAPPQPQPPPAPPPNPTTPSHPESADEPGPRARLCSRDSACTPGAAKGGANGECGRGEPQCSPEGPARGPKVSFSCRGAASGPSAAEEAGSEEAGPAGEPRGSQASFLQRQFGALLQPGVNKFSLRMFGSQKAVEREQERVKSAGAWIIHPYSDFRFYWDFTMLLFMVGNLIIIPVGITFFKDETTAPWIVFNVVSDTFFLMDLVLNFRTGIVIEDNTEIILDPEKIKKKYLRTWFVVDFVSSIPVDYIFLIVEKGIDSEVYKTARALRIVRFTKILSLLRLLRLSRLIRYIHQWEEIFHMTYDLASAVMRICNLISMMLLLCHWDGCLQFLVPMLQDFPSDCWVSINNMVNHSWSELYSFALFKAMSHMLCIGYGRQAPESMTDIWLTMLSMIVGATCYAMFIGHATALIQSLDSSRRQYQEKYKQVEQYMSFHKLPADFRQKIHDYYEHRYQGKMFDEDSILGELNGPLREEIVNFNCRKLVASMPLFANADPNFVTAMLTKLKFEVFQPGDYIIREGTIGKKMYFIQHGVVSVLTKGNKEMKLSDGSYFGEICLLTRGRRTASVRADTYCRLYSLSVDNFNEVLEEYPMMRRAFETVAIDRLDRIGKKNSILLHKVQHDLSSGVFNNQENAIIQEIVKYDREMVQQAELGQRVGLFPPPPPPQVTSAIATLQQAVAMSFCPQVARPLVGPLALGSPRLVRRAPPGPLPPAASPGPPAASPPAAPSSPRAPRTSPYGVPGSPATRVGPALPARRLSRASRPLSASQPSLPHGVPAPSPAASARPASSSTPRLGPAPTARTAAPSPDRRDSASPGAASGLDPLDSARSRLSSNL

B1: G-protein-activated inward rectifier potassium channel 1 (protein, UniProt P63250 1-501)
chain: MSALRRKFGDDYQVVTTSSSGSGLQPQGPGQGPQQQLVPKKKRQRFVDKNGRCNVQHGNLGSETSRYLSDLFTTLVDLKWRWNLFIFILTYTVAWLFMASMWWVIAYTRGDLNKAHVGNYTPCVANVYNFPSAFLFFIETEATIGYGYRYITDKCPEGIILFLFQSILGSIVDAFLIGCMFIKMSQPKKRAETLMFSEHAVISMRDGKLTLMFRVGNLRNSHMVSAQIRCKLLKSRQTPEGEFLPLDQLELDVGFSTGADQLFLVSPLTICHVIDAKSPFYDLSQRSMQTEQFEVVVILEGIVETTGMTCQARTSYTEDEVLWGHRFFPVISLEEGFFKVDYSQFHATFEVPTPPYSVKEQEEMLLMSSPLIAPAITNSKERHNSVECLDGLDDISTKLPSKLQKITGREDFPKKLLRMSSTTSEKAYSLGDLPMKLQRISSVPGNSEEKLVSKTTKMLSDPMSQSVADLPPKLQKMAGGPTRMEGNLPAKLRKMNSDRFT
B2: A-kinase anchoring protein 5 (protein, UniProt D3YVF0 1-745)
chain: METSVSEIQVETKDEKGPVAASPQKERQERKTATLCFKRRKKANKTKPKAGSRTAEETKKHTPEAGGSGQRQPAGAWASIKGLVTHRKRSEPAKKQKPPEAEVQPEDGALPKKKAKSRLKFPCLRFSRGAKRSRHSKLTEDSGYVRVQGEADDLEIKAQTQPDDQAIQAGSTQGLQEGVLVRDGKKSQESHISNSVTSGENVIAIELELENKSSAIQMGTPELEKETKVITEKPSVQTQRASLLESSAAGSPRSVTSAAPPSPATTHQHSLEEPSNGIRESAPSGKDDRRKTAAEEKKSGETALGQAEEAAVGQADKRALSQAGEATAGHPEEATVIQAESQAKEGKLSQAEETTVAQAKETVLSQAKEGELSQAKKATVGQAEEATIDHTEKVTVDQAEETTVGQAEEATVGQAGEAILSQAKEATVVGQAEEATVDRAEEATVGQAEEATVGHTEKVTVDQAEEATVGQAEEATVGQAEEATVDWAEKPTVGQAEEATVGQAEEATVGHTEKVTVDQAEEATVGQAEEATVGHTEKVTVDHAEEATVGQAEEATVGQAEKVTVDHAEEATVGQAEEATVGQAEKVTVDHAEEATVGQAEEATVGQAEKVTVDQAEEPTVDQAEEAISSHAPDLKENGIDTEKPRSEESKRMEPIAIIITDTEISEFDVKKSKNVPKQFLISMENEQVGVFANDSDFEGRTSEQYETLLIETASSLVKNAIELSVEQLVNEMVSEDNQINTLFQ
B3: amyloid-beta A4 precursor protein-binding family A member 1 (protein, UniProt B2RUJ5 1-842)
chain: MNHLEGSAEVEVADEAPGGEVNESVEADLEHPEVVEGQQPSPSPPPPAGHEPEDHRGHPAPPPPPPPQEEEEEERGECLARSASTESGFHNHTDTAEGDVLAAARDGYEAERAQDADDESAYAVQYRPEAEEYTEQAEAEHVEAAQRRALPNHLHFHSLEHEEAMNAAYSGYVYTHRLFHRAEDEPYAEPYADYGGLQEHVYEEIGDAPELEARDGLRLYERERDEAAAYRQEALGARLHHYDERSDGESDSPEKEAEFAPYPRMDSYEQEEDIDQIVAEVKQSMSSQSLDKAAEDMPEAEQDLERAPTPGGGHPDSPGLPAPAGQQQRVVGTPGGSEVGQRYSKEKRDAISLAIKDIKEAIEEVKTRTIRSPYTPDEPKEPIWVMRQDISPTRDCDDQRPVDGDSPSPGSSSPLGAESSSIPLHPGDPTEASTNKESRKSLASFPTYVEVPGPCDPEDLIDGIIFAANYLGSTQLLSDKTPSKNVRMMQAQEAVSRIKTAQKLAKSRKKAPEGESQPMTEVDLFISTQRIKVLNADTQEPMMDHPLRTISYIADIGNIVVLMARRRMPRSNSQENVEASHPSQDGKRQYKMICHVFESEDAQLIAQSIGQAFSVAYQEFLRANGINPEDLSQKEYSDLLNTQDMYNDDLIHFSKSENCKDVFIEKQKGEILGVVIVESGWGSILPTVIIANMMHGGPAEKSGKLNIGDQIMSINGTSLVGLPLSTCQSIIKGLKNQSRVKLNIVRCPPVTTVLIRRPDLRYQLGFSVQNGIICSLMRGGIAERGGVRVGHRIIEINGQSVVATPHEKIVHILSNAVGEIHMKTMPAAMYRLLTAQEQPVYI
B4: calcium/calmodulin-dependent serine kinase Cask protein (protein, UniProt O70589 1-926)
chain: MADDDVLFEDVYELCEVIGKGPFSVVRRCINRETGQQFAVKIVDVAKFTSSPGLSTEDLKREASICHMLKHPHIVELLETYSSDGMLYMVFEFMDGADLCFEIVKRADAGFVYSEAVASHYMRQILEALRYCHDNNIIHRDVKPHCVLLASKENSAPVKLGGFGVAIQLGESGLVAGGRVGTPHFMAPEVVKREPYGKPVDVWGCGVILFILLSGCLPFYGTKERLFEGIIKGKYKMNPRQWSHISESAKDLVRRMLMLDPAERITVYEALNHPWLKERDRYAYKIHLPETVEQLRKFNARRKLKGAVLAAVSSHKFNSFYGDPPEELPDFSEDPTSSGLLAAERAVSQVLDSLEEIHALTDCSEKDLDFLHSVFQDQHLHTLLDLYDKINTKSSPQIRNPPSDAVQRAKEVLEEISCYPENNDAKELKRILTQPHFMALLQTHDVVAHEVYSDEALRVTPPPTSPYLNGDSPESANGDMDMENVTRVRLVQFQKNTDEPMGITLKMNELNHCIVARIMHGGMIHRQGTLHVGDEIREINGISVANQTVEQLQKMLREMRGSITFKIVPSYRTQSSSCERDSPSTSRQSPANGHSSTNNSVSDLPSTTQPKGRQIYVRAQFEYDPAKDDLIPCKEAGIRFRVGDIIQIISKDDHNWWQGKLENSKNGTAGLIPSPELQEWRVACIAMEKTKQEQQASCTWFGKKKKQYKDKYLAKHNAVFDQLDLVTYEEVVKLPAFKRKTLVLLGAHGVGRRHIKNTLITKHPDRFAYPIPHTTRPPKKDEENGKNYYFVSHDQMMQDISNNEYLEYGSHEDAMYGTKLETIRKIHEQGLIAILDVEPQALKVLRTAEFAPFVVFIAAPTITPGLNEDESLQRLQKESDVLQRTYAHYFDLTIINNEIDETIRHLEEAVELVCTAPQWVPVSWVY
B5: hyperpolarization-activated cyclic nucleotide-gated channel HCN3 (protein, UniProt O88705 1-779)
chain: MEEEARPAAGAGEAATPARETPPAAPAQARAASGGVPESAPEPKRRQLGTLLQPTVNKFSLRVFGSHKAVEIEQERVKSAGAWIIHPYSDFRFYWDLIMLLLMVGNLIVLPVGITFFKEENSPPWIVFNVLSDTFFLLDLVLNFRTGIVVEEGAEILLAPRAIRTRYLRTWFLVDLISSIPVDYIFLVVELEPRLDAEVYKTARALRIVRFTKILSLLRLLRLSRLIRYIHQWEEIFHMTYDLASAVVRIFNLIGMMLLLCHWDGCLQFLVPMLQDFPSDCWVSMNRMVNHSWGRQYSHALFKAMSHMLCIGYGQQAPVGMPDVWLTMLSMIVGATCYAMFIGHATALIQSLDSSRRQYQEKYKQVEQYMSFHKLPADTRQRIHEYYEHRYQGKMFDEESILGELSEPLREEIINFTCRGLVAHMPLFAHADPSFVTAVLTKLRFEVFQPGDLVVREGSVGRKMYFIQHGLLSVLARGARDTRLTDGSYFGEICLLTRGRRTASVRADTYCRLYSLSVDHFNAVLEEFPMMRRAFETVAMDRLRRIGKKNSILQRKRSEPSPGSSGGVMEQHLVQHDRDMARGVRGLAPGTGARLSGKPVLWEPLVHAPLQAAAVTSNVAIALTHQRGPLPLSPDSPATLLARSARRSAGSPASPLVPVRAGPLLARGPWASTSRLPAPPARTLHASLSRTGRSQVSLLGPPPGGGARRLGPRGRPLSASQPSLPQRATGDGSPRRKGSGSERLPPSGLLAKPPGTVQPPRSSVPEPVTPRGPQISANM
B6: Frrs1l (protein, UniProt B1AXV0 29-293)
chain: SPADDSAGPGGRGPRGRARGDAGADEAVPRHDSSYGTFASEFYDLRYLSEEGYPFPTAPPVDPFAKIKVEDCGRTKGCFRYGKPGCNAETCDYFLSYRMIGADVEFELSADTDGWVAVGFSSDKKMGGDDVMACVHDDNGRVRIQHFYNVGQWAKEVQRNPARDEEGVFENNRVTCRFKRPVNVPRDETIVDLHLSWYYLFAWGPAIQGAITRHDIDSPPASERVVSIYKYEDIFMPSAAYQTFSSPFCLLLIVALTFYLLMGTP

Results are given in words; binding and its absence hold for the method and conditions named. Binding seen in cells or lysates may run through a third protein. Here binding means that the protein was enriched with, or labelled near, the bait; the list need not be complete.

The first experiment addresses Cav1.2 L-type voltage-dependent Ca2+ channel α1-subunit (mouse (endogenous in midbrain)) (UniProt Q01815). Nature of the experiment: affinity purification with mass spectrometry; mouse midbrain plasma-membrane-enriched fraction solubilised in CL47a; antibody-coated magnetic beads (protein A Dynabeads for Cav1.3), 2 h at 4 °C; LC-MS/MS, iBAQ, Class A/B against 11 control IPs from knock-out mice.
As to “voltage-dependent calcium channel auxiliary subunit β1 (from UniProt Q8R3Z5 1-597)”, the binding entry is on record as “binds”.

For “voltage-dependent calcium channel auxiliary subunit α2δ2 (from UniProt Q6PHS9 19-1154)”, the binding result was “binds”. Still for that read-out and setting: next, “adenylate cyclase 1 (from UniProt O88444 1-1118)”: “binds”; B1: “binds”.

For a further experiment, the target named is SK3 calcium-activated small-conductance potassium channel (mouse (endogenous in midbrain)) (UniProt P58391). Described as above.
As to B2, the binding entry is “binds”. The same measure, in the same setting: with B3 the entry was “binds”; with B4, “binds”.

A further experiment has as its target T1, hyperpolarization-activated cyclic nucleotide-gated channel HCN2 (mouse (endogenous in midbrain)). Described as above.
As for B5, the binding result is listed as “binds”. Same read-out and setting: with B6 the entry was “binds”.
